{"source": "paper PMC6838200", "key": {"[1]": {"biological_target": "Aip5-N (Aip5 N-terminal region, 1-1131aa) (S. cerevisiae) (UniProt P43597)", "test": "negative-stain TEM; 1 µM purified protein on carbon-coated copper grids, uranyl acetate stain, non-crowding conditions; both purified"}, "[2]": {"biological_target": "T1, Spa2-LC (Spa2 disordered region 1151-1305aa and ordered region 1306-1466aa) (S. cerevisiae) (UniProt P23201)", "T1 sequence": "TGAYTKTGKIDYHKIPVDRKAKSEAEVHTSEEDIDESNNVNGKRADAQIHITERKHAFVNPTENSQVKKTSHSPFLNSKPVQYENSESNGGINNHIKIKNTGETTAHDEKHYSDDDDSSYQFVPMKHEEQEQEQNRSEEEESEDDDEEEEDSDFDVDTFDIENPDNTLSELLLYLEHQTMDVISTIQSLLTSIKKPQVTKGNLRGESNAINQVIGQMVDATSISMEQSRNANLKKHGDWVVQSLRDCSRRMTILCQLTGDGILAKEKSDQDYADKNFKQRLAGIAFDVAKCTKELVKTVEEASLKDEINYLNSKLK", "test": "native gel or EMSA; 4 µg Spa2-LC incubated with 2 µg Aip5 variant on ice for 30 min; native PAGE (4% stacking, 9% separating) at 4 °C; both purified"}}, "note": "Results are given in words; binding and its absence hold for the method and conditions named. Some results given as binding are weak or reduced against the parent protein; the word gives no strength.", "data": [{"binder": "Aip5-N (Aip5 N-terminal region, 1-1131aa) (domain or fragment, UniProt P43597 1-1131) MVESLTVENQEHNVQPPSVTSAGDSYSTLATDLPLPSTNDIIESRDQLTESDLDEAINATENFAQELSSQRKSSKLKGHKKKNQGQIKANRDRDTIVKLSSSVGETEEASTRDAISHDLERKDDVIEIATDTINDATESPTQIPIDVNVVIKETSTNNVAEGTENVPPIKESTGIEVGNSPITRRKKNKKKKTTNRRGRNSSNPADTTDLSKQSTLDSILVGIEEYLQEDGSKNEDIKVNIVQDEPVNVEKMDIRTRNESSDKTFDIDVPNKDNVDETSSKSENNINEEKAEHTLPREENEILNVNEGNAASFKHQLEPHGLEAGDENGQASTKDVESESLTKNGFNFKENESKHLKAGEKQQTESDRDGISPSVLAKNQKETEIGKEDHVFEQKDKEDEKCRKELSVNHENNMSHNFNAAGSDSIIPPETERETYDDETMGPTKRISDNEKNLQHGTNDISVEVEKEEEEEEEEEENSTFSKVKKENVTGEQEAVRNNEVSGTEEESTSKGEEIMGGDEKQSEAGEKSSIIEIEGSANSAKISKDNLVLEDEAEAPTQENKPTEVVGEIDIPDAPRDDVEIVEAVEKNIIPEDLEVAKEDQEGEQVKLDEPVKAMKDDKIAMRGAESISEDMKKKQEGTAELSNEKAKKEVDETARESAEGVEVEKSKTPESPKVVKRCTSGRPEDLQINERDPEVLKEDVRVPDEDVKPEIATTIENSEEEDPKSQRVQISTEQAETTQKDMGDVGSTTSFKEEEKPKRFEITQEGDKITGKDTNHEHGEATEAASENSKASDVGTAEKYIEPSSESVKKDTEEDAEVENSEKTEFIKVKAELENLDAPKEAEVTAELNKENEDVEVDTEEDAEVENSEKTEFIKVKAELGNLDAPKEAEVTAELNKENEDVEVAATSKEDIETKCSEPAETPIEDGTCTEAEVSKKDAEAVTKEDENMENSKIAEALKDVTGDQEIDDINISDEFQRTVELPELEKQDIKDNKGEDKELEVEETEKETSLPDLVVEENITEEKNEIKQEEEEVSQLDFNETESISKEAPNNDENGFEDQSTRENPKKASADDIFKDILDETNEFLEQLKIVDDSELNALLQSLDAKDSTTQTTEQSKKNNDKPQDVIT", "values": [{"measurement": "binding", "setting": "[1]", "value": "binds"}, {"measurement": "binding", "setting": "[2]", "value": "binds"}]}]}
